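Growth of Mycobacterium tuberculosis over 3 days (7H9 medium with glucose and tyloxapol); the read-out is not stated. Compounds at 50 µM. The record gives no direction; compounds that gave an IC50 in retests scored well above the rest, so higher reads as more growth inhibition. About 69,000 compounds were tested under these conditions; 1.1% (about 760) showed 50% or more at least once.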

Values are the deposited “Percent Effect”, in %.
The record does not define 0% and 100%; most values in the screen are far below 50% and negative numbers occur (in some assays of this library far below -100).
The compounds are a random part of those screened.
Two or more numbers in one place are separate tests of the same structure; such repeats can differ widely.

compound	percent effect
Cc1nn(C)c2nc(NCCCN3CCCC(CO)C3)sc12 (centres unmarked)	2.971
CCN1CC2(CCNCC2)COc2ccccc2S1(=O)=O.O=C(O)C(F)(F)F	-10.25
Cc1cccc(C(=O)N2CCN(CCC(C)C)CC2)n1	5.386 & 8.446
CC(C)(C#N)C(=O)N1CCCC(c2cc(C(F)(F)F)[nH]n2)C1 (centres unmarked)	28.99
CN1CCN(CC2CC2)C(=O)c2cnc(N3CCCCC3)nc21	-8.415
[H][C@]12CCN(C(=O)c3ccccn3)CC[C@@]1([H])S(=O)(=O)N(CC(C)C)C2	16.67
Cc1nccn1CCN(C)c1nc(-c2cccnc2)nc2c1CCNC2	-5.352
Nc1no[n+]([O-])c1C(=O)NCc1ccccn1	9.396
O=C(Cn1cc(C2CC2)nn1)NC(c1ccc(Cl)cc1)C1CC1 (centres unmarked)	6.239 & -20.5
Cc1cc2cccc(C(=O)N3CCOC(CCN(C)C)C3)c2o1 (centres unmarked)	-25.48 & 9.171
COCc1ccc(C(=O)N2CC[C@H](O)[C@@H](n3ccnc3)CC2)cc1	8.77
COc1ccc(NCc2c[nH]nc2-c2cccnc2)cc1	-8.329 & -30.56
COc1ccccc1C(=O)C1CCCN(c2cc(C#N)ccn2)C1 (centres unmarked)	6.732
Cc1cc(Br)c2c(c1)C1(CC(=O)Nc3c1cnn3C(C)C)C(=O)N2 (centres unmarked)	22.17
CCN(CC)S(=O)(=O)N1C[C@@H](O)[C@H](Oc2cccc(F)c2)C1	5.479
CC(C)=CCCC1(C)C=Cc2c(cc(C)n(CCC(=O)O)c2=O)O1 (centres unmarked)	-7.728
Cc1cc(C(=O)N(C)Cc2cccs2)nc(N2CCOCC2)n1	-5.316
Cc1ccc(CN2Cc3ccnn3CC(C(=O)NCC3CC3)C2)o1.O=C(O)C(F)(F)F.O=C(O)C(F)(F)F (centres unmarked)	-18.46
Nc1cc(-c2cc[nH]n2)nc(N2CCCC2)n1	-6.716
[H][C@]12CCN(C(=O)c3ccccc3)C[C@@]1([H])OCCN(C(C)=O)C2	12.56
CCCc1nc(NCCCOCC)c2c(n1)c(C)nn2CC	10.05
COc1cc2cc(C)c(SCCN3CCCCC3)nc2cc1OC.Cl	52.64
CCN(CC)S(=O)(=O)CCNc1ncnc2cc(F)c(F)cc12	9.155 & 2.133
Cc1csc2c(=O)n(CCN3CCC(c4ccccc4)CC3)cnc12	9.505
Cc1ccc(-c2cc(C(=O)O)sn2)cc1	-1.534 & -4.196
CC(C)c1nc(C2CCCN2c2cnc3cc(F)c(F)cc3n2)no1 (centres unmarked)	4.012
Cn1cc(CN2CCn3cc(CNC(=O)C4CCC4)nc3C2)cn1.O=C(O)C(F)(F)F	9.753
CN(C)Cc1ccnc(C2CCCN2Cc2ccncc2)n1 (centres unmarked)	10.16
Cc1ccc(N2CC[C@@H](NC(=O)c3cnccn3)[C@H](O)C2)nn1	13.25
COCC(C)NC(=O)N(C)Cc1cc(C)on1 (centres unmarked)	15.41
O=C1OCCN1CCN1CCCN(Cc2ccccc2F)CC1	8.344
CC(CC(=O)N1CCN(c2cnccn2)CC1)c1ccc(F)cc1 (centres unmarked)	6.935 & 13.13
CC1(C)CN(C(=O)Nc2ccc(Cn3cccn3)cc2)CCO1	-3.916
CCCn1nccc1C(=O)Nc1nc(C)c(C)s1	50.94 & 5.993
O=C(C1CCCN(CCc2ccc3c(c2)CCO3)C1)N1CCCC1 (centres unmarked)	3.037
CC(=O)Nc1ncc(S(=O)(=O)Nc2ccccc2F)s1	33.77
Cc1noc(C)c1CN(C)C(=O)NC1CCN(c2ncccn2)CC1	-24.23
CC(CNC(=O)c1cccc(C#N)c1)N1CCc2ccccc21 (centres unmarked)	26.04
O=C(O)C(F)(F)F.[H][C@@]12CCN(CC3CC3)C[C@@]1([H])O[C@H](c1nc(C)no1)C2	24.48 & -0.8222
CC(C)C(Sc1nncn1C1CC1)C(=O)NCc1cccnc1 (centres unmarked)	7.708
CC(=O)Nc1nc(CN(C)CC2CCCN2c2cccnn2)cs1 (centres unmarked)	3.082 & 8.271
COc1ccc2cc(-c3n[nH]cc3CN3CCSCC3)ccc2c1	9.004
CC(=O)N1N=C(Cc2ccccc2)OC1C(=O)NCC(C)C (centres unmarked)	4.044
[H][C@]12CC[C@](O)(c3ccccc3F)[C@@]1([H])CN(C(=O)c1cc(C3CC3)n[nH]1)C2	11.68
COc1ccc(C2CC(=O)Nc3c2nc2n3CCCC2)cc1O (centres unmarked)	-18.31
O=C1CSC(c2cccnc2)c2c(n(C3CCOCC3)[nH]c2=O)N1 (centres unmarked)	15.3
[H][C@@]12CCCN1C[C@@H](CCSC)N(Cc1cnn(CC)c1)C2	13.21
Cn1nccc1NC(=O)CN1CCc2sccc2C1	1.272
CN1CCOC(CN(C(=O)CCc2ccco2)c2nccs2)C1 (centres unmarked)	7.758 & -4.759

Some entries from above, unchanged:

Result for O=C(Cn1cc(C2CC2)nn1)NC(c1ccc(Cl)cc1)C1CC1 (centres unmarked) was 6.239% & -20.5%.
Result for O=C1OCCN1CCN1CCCN(Cc2ccccc2F)CC1 was 8.344%.
Result for COc1ccc2cc(-c3n[nH]cc3CN3CCSCC3)ccc2c1 was 9.004%.
Result for O=C(C1CCCN(CCc2ccc3c(c2)CCO3)C1)N1CCCC1 (centres unmarked) was 3.037%.

Source: ChEMBL document CHEMBL3988442, “University of Dundee, Small-Polar-MMV Screening Library” (2021).